Data published in patent publication US5726153A, “Synthetic peptides for arterial imaging” (New England Deaconess Hospital Corporation, priority 1995, dated 1998).
For at least one compound, name, drawing or mass did not settle the structure. Ends that are not written are not given here.

Each substance was assayed on balloon de-endothelialized healing abdominal aorta (assay: Focal accumulation at vascular injury, onlay autoradiography of excised aorta, balloon de-endothelialized rabbit). Conditions: Table 4: 125I, Cir. T. 4 hours, intravenous 0.2-1.0 mCi.
Type: in vivo, New Zealand white rabbits
Method: The peptides described herein were assayed for their ability to target sites of vascular injury as follows. Male New Zealand white rabbits (2 to 3 kg each) were obtained from ARI Breeding Labs, West Bridgewater, Mass. To induce vascular injury, their abdominal aortas were denuded of endothelium by a modification of the Baumgartner technique (Fischman et al., Arteriosclerosis 7:361, 1987). Briefly, after each animal was anesthetized with ketamine and ether or, alternatively, with xylazine (20 mg/ml) and Ketalar (50 mg/ml), the left femoral artery was isolated; a 4F Fogarty embolectomy catheter (Model 12-040-4F, Edwards Laboratories Incorporated, Santa Anna, Calif.) was introduced through an arterotomy in the femoral artery and was advanced under fluoroscopic visualization to the level of the diaphragm. The catheter was inflated to a pressure of about 3 psi above the balloon inflation pressure with radiographic contrast medium (Conray, Mallinkrodt, St. Louis, Mo.). Three passes were made through the abdominal aorta with the inflated catheter to remove the aortic endothelium before removal of the catheter, ligation of the femoral artery, and closure of the wound. The animals were allowed to heal for a period of 4 to 5 weeks before injection of the labelled synthetic peptides.
Each labelled synthetic peptide preparation (containing, for example, 150 to 400 or more μCi of ^125 I-labelled peptide) in column elution buffer was injected into the marginal ear vein of the ballooned and healing New Zealand white rabbits or WHHL rabbits. Serial blood samples were obtained from the opposite ear during the ensuing 0-24 hours and were analyzed for radioactivity. The labelled peptide concentrations in the blood samples that were withdrawn over the first 10 minutes after injection were extrapolated to zero time to determine the time zero radioactivity in the calculation of average plasma radioactivity. […]

Row | Substance | Focal Acc'm
1 | Ac-YVLDEFREKLNEELEALKQK-NH2 [SP-34a] | +
2 | YVPGVGVPGVGVPGVGVPGVG-NH2 [SP-30, H2 N-Tyr-Val-Pro-Gly-Val-Gly-Val-Pro-Gly-Val-Gly-Val-Pro-Gly-Val-Gly-Val-pro- Gly-Val-Gly-CONH2] | +
3 | YVGVAPGVGVAPGVGVAPG [SP-28, H2 N-Tyr-Val-Gly-Val-Ala-Pro-Gly-Val-Gly-Val-Ala-Pro-Gly-Val-Gly-Val-Ala-Pro- Gly-OH] | +
